Test in all cases: affinity purification with mass spectrometry; anti-HA magnetic beads with 1 mg RIPA lysate (150 mM NaCl, 50 mM Tris pH 8, 0.1% SDS, 0.5% NaDOC, 1% NP-40) overnight at 4°C, 5 washes with RIPA; label-free LC-MS/MS; Cdk6-/- cells as control
Assay [1] deals with HA-C-terminally truncated Cdk6 (Cdk6 ΔC) (mouse) (UniProt Q64261).
Assay [2] addresses full length HA-tagged Cdk6 (mouse) (UniProt Q64261).
In assay [3] the target is HA-C-terminally truncated Cdk6 (Cdk6 ΔC) (mouse) (UniProt Q64261). This is another data set of the same source.
The target in assay [4] is full length HA-tagged Cdk6 (mouse) (UniProt Q64261). The source holds these as a separate data set.

Chains of the proteins cited; added tags and fusions are not shown. Lines headed by an entry give the natural chain unless they say otherwise; changes in a name come on top. Residues count along the entry.
UniProt Q64261: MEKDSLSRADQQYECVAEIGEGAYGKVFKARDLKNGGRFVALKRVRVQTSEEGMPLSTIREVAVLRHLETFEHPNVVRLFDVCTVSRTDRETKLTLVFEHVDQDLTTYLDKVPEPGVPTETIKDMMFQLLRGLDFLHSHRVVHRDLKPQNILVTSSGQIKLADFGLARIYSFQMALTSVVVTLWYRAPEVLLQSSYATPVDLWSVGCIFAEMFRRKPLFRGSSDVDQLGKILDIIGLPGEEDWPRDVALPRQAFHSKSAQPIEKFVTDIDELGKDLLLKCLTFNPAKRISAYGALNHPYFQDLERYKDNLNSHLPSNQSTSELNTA
HA-C-terminally truncated Cdk6 (Cdk6 ΔC): residues 1-294 of Q64261
UniProt P46414: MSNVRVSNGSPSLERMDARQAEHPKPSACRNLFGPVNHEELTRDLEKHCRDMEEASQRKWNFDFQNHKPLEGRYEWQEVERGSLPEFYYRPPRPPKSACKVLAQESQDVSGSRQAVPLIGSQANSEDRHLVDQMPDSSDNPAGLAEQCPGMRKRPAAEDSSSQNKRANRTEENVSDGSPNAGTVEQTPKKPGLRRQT
UniProt P24860: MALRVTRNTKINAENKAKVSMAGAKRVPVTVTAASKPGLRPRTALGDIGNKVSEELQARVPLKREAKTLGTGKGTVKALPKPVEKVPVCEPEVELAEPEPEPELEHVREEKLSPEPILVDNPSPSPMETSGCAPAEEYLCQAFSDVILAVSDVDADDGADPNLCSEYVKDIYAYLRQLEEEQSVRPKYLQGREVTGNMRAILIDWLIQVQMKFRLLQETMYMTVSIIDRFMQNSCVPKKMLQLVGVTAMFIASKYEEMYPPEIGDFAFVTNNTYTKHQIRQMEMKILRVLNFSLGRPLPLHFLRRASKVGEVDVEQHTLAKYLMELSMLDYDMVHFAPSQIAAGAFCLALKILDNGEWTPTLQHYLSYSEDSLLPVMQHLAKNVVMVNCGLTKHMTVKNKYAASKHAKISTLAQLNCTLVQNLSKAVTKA

Where two headings read alike, the source gives them in different places. These are yes or no findings as the source states them, for the method shown. Binding seen in cells or lysates may run through a third protein. A yes stands for co-enrichment or nearness to the bait. Other partners may have been found. For part of these data: No binding means not detected with the bait.

Turning to p27^Kip1 (from UniProt P46414 1-197), the binding result in assay [1] is reported as “no binding”; in assay [2] it was “binds”.
Take cyclin B1 (from UniProt P24860 1-430): the binding entry in assay [1] and in assay [2] was “binds” throughout.

B1: CDC37 (protein, UniProt Q61081 1-379)
chain: MVDYSVWDHIEVSDDEDETHPNIDTASLFRWRHQARVERMEQFQKEKEELDRGCRECKRKVAECQRKLKELEVAESDGQVELERLRAEAQQLRKEERSWEQKLEDMRKKEKNMPWNVDTLSKDGFSKSMVNTKPEKAEEDSEEAREQKHKTFVEKYEKQIKHFGMLHRWDDSQKYLSDNVHLVCEETANYLVIWCIDLEVEEKCALMEQVAHQTMVMQFILELAKSLKVDPRACFRQFFTKIKTADHQYMEGFKYELEAFKERVRGRAKLRIEKAMKEYEEEERKKRLGPGGLDPVEVYESLPEELQKCFDVKDVQMLQDAISKMDPTDAKYHMQRCIDSGLWVPNSKSGEAKEGEEAGPGDPLLEAVPKAGNEKDVSA
On to B1, for which the figures for the binding result in assay [3] and in assay [4] were “no binding” and “binds”, respectively.
